For two molecules, binding results are on record in article doi:10.1101/2022.02.05.479199.

Assay [1] deals with T1, Replication protein A (Saccharomyces cerevisiae RPA) (S. cerevisiae) (UniProt P22336+P26754+P26755). Briefly: SEC. Background: SEC sorts molecules by how far they enter the pores of the column.
Assay [2] has as its target T1, Replication protein A (Saccharomyces cerevisiae RPA) (S. cerevisiae). Nature of the assay: HDX-MS.
Assay [3] has the same target. Nature of the assay: cross-linking.
For assay [4] the target is unchanged. Briefly: SEC. The source holds these as a separate data set.
For assay [5] the target is unchanged. Briefly: SEC. The source holds these as a separate data set.
For assay [6] the target is unchanged. Briefly: AUC.

No constants are given. Whether binding was seen depends on the method and setting. Some results given as binding are weak or reduced against the parent protein; the word gives no strength.

B1: Regulator of Ty1 Transposition 105 (Rtt105) (protein, UniProt P40063 1-208)
chain: MYSNHNLNSDDCCFDWNEEKAAELQRTGVSFDRSLTPQSLRTSTRRLSEENKQQSGTMHIDTSPSVVSDIISSRRDRSQDFFGPHSSSPIAPSERQRADQRSRLESMRLTRRRDKMTKVRGGLEKMEEMIMQGEHLREMQRLKQEAQKNALPSDMAEYMEWQNNEDLEDDELLAFIEKQETYKNELEHFLNNANKNVYENNSYPNSHT
B1: the binding entry in assay [1], in assay [2], in assay [3], in assay [4] and in assay [5] was “binds” throughout.

B2: Rtt105^Cy5 (protein, UniProt P40063 1-208)
chain: MYSNHNLNSDDCSFDWNEEKAAELQRTGVSFDRSLTPQSLRTSTRRLSEENKQQSGTMHIDTSPSVVSDIISSRRDRSQDFFGPHSSSPIAPSERQRADQRSRLESMRLTRRRDKMTKVRGGLEKMEEMIMQGEHLREMQRLKQEAQKNALPSDMAEYMEWQNNEDLEDDELLAFIEKQETYKNELEHFLNNANKNVYENNSYPNSHT
modifications: Cy5 (maleimide) on Cys-12
For the molecule B2, the binding entry in assay [6] is given as “binds weakly”.
